Data as given in PubChem BioAssay AID1159598 (NIAID, 2016)
Test: 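Canonical TLR pathway genes needed for TNF promoter response to flagellin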. Cells: human THP-1 B5 reporter cells made macrophage-like with PMA. Reagent: single siRNA against human genes. Duration: reporter read 48 to 72 hours after siRNA transfection. Treatment: flagellin stimulation for 4 hours, dose not given. Detection: 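Firefly to renilla ratio from a TNF promoter reporter after 4 h flagellin, as robust z against negative controls averaged across replicates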. Reading the numbers: TNF reporter z-score: higher = stronger TNF promoter activity than controls. Call rule: 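a row is called active when its replicate-mean z lies at or beyond 1.5 in either direction, so raised and lowered signal both count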. Meaning of the calls: active = reporter shifted beyond 1.5 z, up or down; inactive = reporter within 1.5 z of controls.
This is an unselected part of 756 reagents. In the full data, 142 (19%) were called active. 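Active includes both higher and lower reporter signal; each gene has six separate siRNAs, and no gene-level summary is deposited.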 Reagents against one gene are numbered here. Reagent sequences are not shown. The record does not give: the amount of reagent.

gene knocked down | siRNA no. | TNF reporter z-score | outcome
ARF6 (ARF GTPase 6) | 1 | 0.857 | inactive
ARF6 (ARF GTPase 6) | 2 | -0.213 | inactive
ARF6 (ARF GTPase 6) | 3 | 0.00836 | inactive
ARF6 (ARF GTPase 6) | 4 | -1.08 | inactive
ARF6 (ARF GTPase 6) | 5 | 0.523 | inactive
ARF6 (ARF GTPase 6) | 6 | 0.512 | inactive
MAPK11 (mitogen-activated protein kinase 11) | 1 | -0.888 | inactive
MAPK11 (mitogen-activated protein kinase 11) | 2 | -1.48 | inactive
MAPK11 (mitogen-activated protein kinase 11) | 3 | -0.0907 | inactive
MAPK11 (mitogen-activated protein kinase 11) | 4 | -0.783 | inactive
MAPK11 (mitogen-activated protein kinase 11) | 5 | 0.185 | inactive
MAPK11 (mitogen-activated protein kinase 11) | 6 | -0.267 | inactive
TICAM2 (TIR domain containing adaptor molecule 2) | 1 | -0.202 | inactive
TICAM2 (TIR domain containing adaptor molecule 2) | 2 | 0.415 | inactive
TICAM2 (TIR domain containing adaptor molecule 2) | 3 | -0.435 | inactive
TICAM2 (TIR domain containing adaptor molecule 2) | 4 | 0.545 | inactive
TICAM2 (TIR domain containing adaptor molecule 2) | 5 | -1.17 | inactive
TICAM2 (TIR domain containing adaptor molecule 2) | 6 | -1.05 | inactive
CHUK | 1 | -0.231 | inactive
CHUK | 2 | -1.25 | inactive
CHUK | 3 | -1.13 | inactive
CHUK | 4 | -0.436 | inactive
CHUK | 5 | -1.06 | inactive
CHUK | 6 | 0.118 | inactive
AKT2 (AKT serine/threonine kinase 2) | 1 | -2.44 | active
AKT2 (AKT serine/threonine kinase 2) | 2 | -0.529 | inactive
AKT2 (AKT serine/threonine kinase 2) | 3 | -0.15 | inactive
AKT2 (AKT serine/threonine kinase 2) | 4 | -0.14 | inactive
AKT2 (AKT serine/threonine kinase 2) | 5 | 1.13 | inactive
AKT2 (AKT serine/threonine kinase 2) | 6 | -0.464 | inactive
JUN (Jun proto-oncogene, AP-1 transcription factor subunit) | 1 | -1.84 | active
JUN (Jun proto-oncogene, AP-1 transcription factor subunit) | 2 | -0.978 | inactive
JUN (Jun proto-oncogene, AP-1 transcription factor subunit) | 3 | -0.664 | inactive
JUN (Jun proto-oncogene, AP-1 transcription factor subunit) | 4 | -1.03 | inactive
JUN (Jun proto-oncogene, AP-1 transcription factor subunit) | 5 | 0.00181 | inactive
JUN (Jun proto-oncogene, AP-1 transcription factor subunit) | 6 | -0.791 | inactive
LBP (lipopolysaccharide binding protein) | 1 | -0.338 | inactive
LBP (lipopolysaccharide binding protein) | 2 | 0.194 | inactive
LBP (lipopolysaccharide binding protein) | 3 | 0.683 | inactive
LBP (lipopolysaccharide binding protein) | 4 | -1.24 | inactive
LBP (lipopolysaccharide binding protein) | 5 | 0.446 | inactive
LBP (lipopolysaccharide binding protein) | 6 | -1.11 | inactive
PIK3R5 (phosphoinositide-3-kinase regulatory subunit 5) | 1 | -1.21 | inactive
PIK3R5 (phosphoinositide-3-kinase regulatory subunit 5) | 2 | -1.41 | inactive
PIK3R5 (phosphoinositide-3-kinase regulatory subunit 5) | 3 | -0.0766 | inactive
PIK3R5 (phosphoinositide-3-kinase regulatory subunit 5) | 4 | 0.183 | inactive
PIK3R5 (phosphoinositide-3-kinase regulatory subunit 5) | 5 | -0.685 | inactive
PIK3R5 (phosphoinositide-3-kinase regulatory subunit 5) | 6 | -2.64 | active
LY96 (lymphocyte antigen 96) | 1 | -0.392 | inactive
LY96 (lymphocyte antigen 96) | 2 | -0.223 | inactive
LY96 (lymphocyte antigen 96) | 3 | 0.503 | inactive
LY96 (lymphocyte antigen 96) | 4 | -0.84 | inactive
LY96 (lymphocyte antigen 96) | 5 | 0.409 | inactive
LY96 (lymphocyte antigen 96) | 6 | -0.143 | inactive
ETS1 (ETS proto-oncogene 1, transcription factor) | 1 | 0.103 | inactive
ETS1 (ETS proto-oncogene 1, transcription factor) | 2 | -1.01 | inactive
ETS1 (ETS proto-oncogene 1, transcription factor) | 3 | -1.67 | active
ETS1 (ETS proto-oncogene 1, transcription factor) | 4 | -0.577 | inactive
ETS1 (ETS proto-oncogene 1, transcription factor) | 5 | 0.965 | inactive
ETS1 (ETS proto-oncogene 1, transcription factor) | 6 | -1.83 | active
TBKBP1 (TBK1 binding protein 1) | 1 | -0.0171 | inactive
TBKBP1 (TBK1 binding protein 1) | 2 | -0.0351 | inactive
TBKBP1 (TBK1 binding protein 1) | 3 | 0.69 | inactive
TBKBP1 (TBK1 binding protein 1) | 4 | 0.473 | inactive
TBKBP1 (TBK1 binding protein 1) | 5 | -0.161 | inactive
TBKBP1 (TBK1 binding protein 1) | 6 | -0.829 | inactive
RELB (RELB proto-oncogene, NF-kB subunit) | 1 | 1.49 | inactive
RELB (RELB proto-oncogene, NF-kB subunit) | 2 | -0.159 | inactive
RELB (RELB proto-oncogene, NF-kB subunit) | 3 | 0.757 | inactive
RELB (RELB proto-oncogene, NF-kB subunit) | 4 | -1.35 | inactive
RELB (RELB proto-oncogene, NF-kB subunit) | 5 | 1.04 | inactive
RELB (RELB proto-oncogene, NF-kB subunit) | 6 | -0.026 | inactive
MAP3K14 (mitogen-activated protein kinase kinase kinase 14) | 1 | 1.03 | inactive
MAP3K14 (mitogen-activated protein kinase kinase kinase 14) | 2 | 0.998 | inactive
MAP3K14 (mitogen-activated protein kinase kinase kinase 14) | 3 | 1.03 | inactive
MAP3K14 (mitogen-activated protein kinase kinase kinase 14) | 4 | -0.249 | inactive
MAP3K14 (mitogen-activated protein kinase kinase kinase 14) | 5 | -0.0488 | inactive
MAP3K14 (mitogen-activated protein kinase kinase kinase 14) | 6 | -0.698 | inactive
DUSP2 (dual specificity phosphatase 2) | 1 | -0.0547 | inactive
DUSP2 (dual specificity phosphatase 2) | 2 | -0.0741 | inactive
DUSP2 (dual specificity phosphatase 2) | 3 | -4.27 | active
DUSP2 (dual specificity phosphatase 2) | 4 | 0.164 | inactive
DUSP2 (dual specificity phosphatase 2) | 5 | -0.128 | inactive
DUSP2 (dual specificity phosphatase 2) | 6 | -0.446 | inactive
CASP8 (caspase 8) | 1 | 0.404 | inactive
CASP8 (caspase 8) | 2 | -0.644 | inactive
CASP8 (caspase 8) | 3 | -0.121 | inactive
CASP8 (caspase 8) | 4 | -0.424 | inactive
CASP8 (caspase 8) | 5 | -0.0022 | inactive
CASP8 (caspase 8) | 6 | -1.24 | inactive
PELI1 (pellino E3 ubiquitin protein ligase 1) | 1 | -0.16 | inactive
PELI1 (pellino E3 ubiquitin protein ligase 1) | 2 | -0.359 | inactive
PELI1 (pellino E3 ubiquitin protein ligase 1) | 3 | 1.76 | active
PELI1 (pellino E3 ubiquitin protein ligase 1) | 4 | -1.63 | active
PELI1 (pellino E3 ubiquitin protein ligase 1) | 5 | -0.134 | inactive
PELI1 (pellino E3 ubiquitin protein ligase 1) | 6 | -0.312 | inactive
TLR9 (toll like receptor 9) | 1 | -1.42 | inactive
TLR9 (toll like receptor 9) | 2 | 0.389 | inactive
TLR9 (toll like receptor 9) | 3 | -1.6 | active
TLR9 (toll like receptor 9) | 4 | 0.316 | inactive
TLR9 (toll like receptor 9) | 5 | -0.079 | inactive
TLR9 (toll like receptor 9) | 6 | 0.945 | inactive
ITGAM (integrin subunit alpha M) | 1 | 2.09 | active
ITGAM (integrin subunit alpha M) | 2 | -0.931 | inactive
ITGAM (integrin subunit alpha M) | 3 | -1.16 | inactive
ITGAM (integrin subunit alpha M) | 4 | -0.903 | inactive
ITGAM (integrin subunit alpha M) | 5 | -0.242 | inactive
ITGAM (integrin subunit alpha M) | 6 | 0.958 | inactive
FOS (Fos proto-oncogene, AP-1 transcription factor subunit) | 1 | -0.00285 | inactive
FOS (Fos proto-oncogene, AP-1 transcription factor subunit) | 2 | -0.17 | inactive
FOS (Fos proto-oncogene, AP-1 transcription factor subunit) | 3 | 1.64 | active
FOS (Fos proto-oncogene, AP-1 transcription factor subunit) | 4 | -0.0294 | inactive
FOS (Fos proto-oncogene, AP-1 transcription factor subunit) | 5 | 0.815 | inactive
FOS (Fos proto-oncogene, AP-1 transcription factor subunit) | 6 | -0.135 | inactive
MAP2K2 (mitogen-activated protein kinase kinase 2) | 1 | -0.235 | inactive
MAP2K2 (mitogen-activated protein kinase kinase 2) | 2 | -0.268 | inactive
MAP2K2 (mitogen-activated protein kinase kinase 2) | 3 | -0.861 | inactive
MAP2K2 (mitogen-activated protein kinase kinase 2) | 4 | 0.818 | inactive
MAP2K2 (mitogen-activated protein kinase kinase 2) | 5 | 0.164 | inactive
MAP2K2 (mitogen-activated protein kinase kinase 2) | 6 | 0.446 | inactive
SP1 (Sp1 transcription factor) | 1 | -2.21 | active
SP1 (Sp1 transcription factor) | 2 | -1.22 | inactive
SP1 (Sp1 transcription factor) | 3 | 0.671 | inactive
SP1 (Sp1 transcription factor) | 4 | 2.69 | active
SP1 (Sp1 transcription factor) | 5 | -0.125 | inactive
SP1 (Sp1 transcription factor) | 6 | -0.48 | inactive
IFNAR2 (interferon alpha and beta receptor subunit 2) | 1 | -0.317 | inactive
IFNAR2 (interferon alpha and beta receptor subunit 2) | 2 | -1.41 | inactive
IFNAR2 (interferon alpha and beta receptor subunit 2) | 3 | -1.81 | active
IFNAR2 (interferon alpha and beta receptor subunit 2) | 4 | -0.0904 | inactive
IFNAR2 (interferon alpha and beta receptor subunit 2) | 5 | -0.507 | inactive
IFNAR2 (interferon alpha and beta receptor subunit 2) | 6 | -0.773 | inactive
TRAF6 (TNF receptor associated factor 6) | 1 | -4.87 | active
TRAF6 (TNF receptor associated factor 6) | 2 | -2.83 | active
TRAF6 (TNF receptor associated factor 6) | 3 | -5.07 | active
TRAF6 (TNF receptor associated factor 6) | 4 | -2.41 | active
TRAF6 (TNF receptor associated factor 6) | 5 | -2.67 | active
TRAF6 (TNF receptor associated factor 6) | 6 | -3.09 | active
TAB2 (TGF-beta activated kinase 1 (MAP3K7) binding protein 2) | 1 | 0.958 | inactive
TAB2 (TGF-beta activated kinase 1 (MAP3K7) binding protein 2) | 2 | -1.2 | inactive
TAB2 (TGF-beta activated kinase 1 (MAP3K7) binding protein 2) | 3 | -2.33 | active
TAB2 (TGF-beta activated kinase 1 (MAP3K7) binding protein 2) | 4 | -2.27 | active
TAB2 (TGF-beta activated kinase 1 (MAP3K7) binding protein 2) | 5 | -3.12 | active
TAB2 (TGF-beta activated kinase 1 (MAP3K7) binding protein 2) | 6 | -1.59 | active
